{"sequences": {"note": "Chains of the proteins cited; added tags and fusions are not shown.", "UniProt P11798": "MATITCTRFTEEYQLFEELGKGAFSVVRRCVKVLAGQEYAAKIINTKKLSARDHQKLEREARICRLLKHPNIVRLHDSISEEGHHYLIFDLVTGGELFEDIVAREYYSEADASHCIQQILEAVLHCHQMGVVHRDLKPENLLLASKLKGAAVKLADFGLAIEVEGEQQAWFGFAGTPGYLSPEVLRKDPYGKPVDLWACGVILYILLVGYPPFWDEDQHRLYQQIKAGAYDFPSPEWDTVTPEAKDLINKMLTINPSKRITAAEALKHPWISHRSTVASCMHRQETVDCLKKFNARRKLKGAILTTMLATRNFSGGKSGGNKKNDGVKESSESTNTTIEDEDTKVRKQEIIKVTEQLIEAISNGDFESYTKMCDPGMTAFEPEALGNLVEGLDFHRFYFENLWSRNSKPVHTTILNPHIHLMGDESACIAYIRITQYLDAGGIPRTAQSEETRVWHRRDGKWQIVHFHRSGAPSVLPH", "UniProt P60879": "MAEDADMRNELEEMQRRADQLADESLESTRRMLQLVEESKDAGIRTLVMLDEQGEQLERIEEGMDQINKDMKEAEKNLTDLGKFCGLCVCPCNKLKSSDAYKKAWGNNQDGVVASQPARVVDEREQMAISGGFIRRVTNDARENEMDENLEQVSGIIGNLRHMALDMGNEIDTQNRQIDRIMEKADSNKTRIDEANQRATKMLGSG", "UniProt Q923T9": "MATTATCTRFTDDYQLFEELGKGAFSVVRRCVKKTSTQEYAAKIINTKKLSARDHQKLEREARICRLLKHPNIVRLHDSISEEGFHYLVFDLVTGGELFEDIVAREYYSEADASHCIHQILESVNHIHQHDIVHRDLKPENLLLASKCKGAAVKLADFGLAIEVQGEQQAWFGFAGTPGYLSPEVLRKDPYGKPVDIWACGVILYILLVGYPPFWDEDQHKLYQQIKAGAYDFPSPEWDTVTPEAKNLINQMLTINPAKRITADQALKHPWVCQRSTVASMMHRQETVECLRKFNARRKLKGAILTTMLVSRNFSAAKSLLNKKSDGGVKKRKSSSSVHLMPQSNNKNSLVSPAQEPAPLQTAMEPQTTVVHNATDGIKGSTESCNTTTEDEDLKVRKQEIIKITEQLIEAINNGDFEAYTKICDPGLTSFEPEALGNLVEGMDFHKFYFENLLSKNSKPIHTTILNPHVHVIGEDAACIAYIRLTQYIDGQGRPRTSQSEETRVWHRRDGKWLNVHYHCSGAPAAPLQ"}, "source": "paper PMC10046084", "target": "T1, GPR158-3×Flag-TeV-HA (G-protein-coupled receptor 158, epitope-tagged knock-in of GPR158^Tag mice) (mouse) (UniProt Q8C419)", "T1 sequence": "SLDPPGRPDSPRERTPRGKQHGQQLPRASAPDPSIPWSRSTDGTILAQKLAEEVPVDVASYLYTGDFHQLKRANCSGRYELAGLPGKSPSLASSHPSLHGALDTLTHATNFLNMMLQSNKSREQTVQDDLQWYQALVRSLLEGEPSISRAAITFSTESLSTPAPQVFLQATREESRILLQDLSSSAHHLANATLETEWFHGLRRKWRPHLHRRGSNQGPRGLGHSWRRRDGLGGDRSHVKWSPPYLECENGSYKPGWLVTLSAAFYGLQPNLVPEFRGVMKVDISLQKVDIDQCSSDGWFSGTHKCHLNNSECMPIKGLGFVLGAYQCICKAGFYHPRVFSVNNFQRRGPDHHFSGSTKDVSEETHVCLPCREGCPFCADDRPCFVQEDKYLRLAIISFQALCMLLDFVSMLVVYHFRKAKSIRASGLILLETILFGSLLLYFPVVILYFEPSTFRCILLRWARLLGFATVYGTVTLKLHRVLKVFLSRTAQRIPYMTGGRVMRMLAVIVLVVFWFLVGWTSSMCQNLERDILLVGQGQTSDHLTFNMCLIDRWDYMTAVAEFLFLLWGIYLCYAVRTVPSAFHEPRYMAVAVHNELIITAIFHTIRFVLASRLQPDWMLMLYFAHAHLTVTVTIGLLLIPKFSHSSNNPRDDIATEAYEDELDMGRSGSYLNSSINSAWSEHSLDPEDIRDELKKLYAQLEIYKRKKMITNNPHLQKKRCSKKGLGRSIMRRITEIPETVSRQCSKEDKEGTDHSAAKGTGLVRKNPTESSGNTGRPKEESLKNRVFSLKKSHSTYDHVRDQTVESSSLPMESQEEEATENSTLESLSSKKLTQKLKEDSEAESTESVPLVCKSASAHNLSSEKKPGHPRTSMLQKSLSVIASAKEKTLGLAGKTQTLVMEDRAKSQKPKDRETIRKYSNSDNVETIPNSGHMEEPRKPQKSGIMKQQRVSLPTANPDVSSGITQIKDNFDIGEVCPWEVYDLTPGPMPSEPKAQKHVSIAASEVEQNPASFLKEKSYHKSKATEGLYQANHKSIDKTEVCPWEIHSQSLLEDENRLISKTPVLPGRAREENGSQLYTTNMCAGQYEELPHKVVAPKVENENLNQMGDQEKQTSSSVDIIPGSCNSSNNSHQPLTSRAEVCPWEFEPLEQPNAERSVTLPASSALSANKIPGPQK", "assay": "affinity purification with mass spectrometry; magnetic beads conjugated with an anti-Flag tag antibody enrich GPR158 from brain tissues of GPR158^Tag mice and wild-type mice; unique peptides of the two compared by mass spectrometry", "note": "No constants are given. Whether binding was seen depends on the method and setting. Binding seen in cells or lysates may run through a third protein. These calls come from enrichment with a bait or labelling near it, and not all partners need be listed. Tags and fused reporters may be left off the sequences shown."}
{"substance": "alpha subunit of type II calcium-calmodulin-dependent protein kinase (Camk2a) (from UniProt P11798 1-478)", "values": [{"measurement": "binding", "result": "binds"}]}
{"substance": "Snap25 (from UniProt P60879 1-206)", "values": [{"measurement": "binding", "result": "binds"}]}
{"substance": "Camk2g (from UniProt Q923T9 1-529)", "values": [{"measurement": "binding", "result": "binds"}]}
